Reference: patent publication US20240189391A1
These are yes or no findings as the source states them, for the method shown. Some results given as binding are weak or reduced against the parent protein; the word gives no strength. For some of these results: Sequences can lack the tags named with a protein.

By UniProt entry, the sequences of proteins in these tests, tags left out. Where a name states a change or a piece, a line headed by the entry shows the natural chain unless it says otherwise. Residues count along the entry.
UniProt P22004, residues 382-513: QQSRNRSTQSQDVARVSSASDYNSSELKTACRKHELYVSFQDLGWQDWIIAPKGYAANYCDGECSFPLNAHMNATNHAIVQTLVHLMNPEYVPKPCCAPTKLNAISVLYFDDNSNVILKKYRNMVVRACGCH
UniProt P36896: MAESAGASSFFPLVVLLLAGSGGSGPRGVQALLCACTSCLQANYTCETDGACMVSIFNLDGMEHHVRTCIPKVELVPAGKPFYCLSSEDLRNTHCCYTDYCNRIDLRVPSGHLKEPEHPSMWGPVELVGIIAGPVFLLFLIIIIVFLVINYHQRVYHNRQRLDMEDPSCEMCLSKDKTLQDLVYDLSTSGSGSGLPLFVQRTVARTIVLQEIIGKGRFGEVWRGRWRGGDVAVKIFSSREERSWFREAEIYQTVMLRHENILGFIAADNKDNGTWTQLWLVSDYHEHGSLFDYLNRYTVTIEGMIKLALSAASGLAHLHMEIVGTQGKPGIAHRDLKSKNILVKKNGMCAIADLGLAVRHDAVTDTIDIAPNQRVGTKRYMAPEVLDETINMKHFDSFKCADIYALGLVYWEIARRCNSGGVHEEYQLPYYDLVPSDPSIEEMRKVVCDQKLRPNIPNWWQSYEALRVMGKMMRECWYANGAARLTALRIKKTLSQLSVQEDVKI

What was measured:
GDF3 [1] = molecular target: T1, GDF3 (UniProt Q9NR23); experiment: SPR (Biacore), summary of the table
T1 sequence (looked up): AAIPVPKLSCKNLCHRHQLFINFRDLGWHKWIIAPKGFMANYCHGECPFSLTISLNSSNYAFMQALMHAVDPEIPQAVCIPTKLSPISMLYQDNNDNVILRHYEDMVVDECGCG

BMP6 [2] = molecular target: BMP6 (UniProt P22004); experiment: SPR (Biacore), summary of the table
GDF3 [3] = molecular target: T1, GDF3; experiment: SPR (Biacore), legend of FIG. 4
BMP6 [4] = molecular target: BMP6 (UniProt P22004); experiment: SPR (Biacore), legend of FIG. 4
GDF11 [5] = molecular target: T2, GDF11 (UniProt O95390); experiment: SPR (Biacore), summary of the table
T2 sequence (looked up): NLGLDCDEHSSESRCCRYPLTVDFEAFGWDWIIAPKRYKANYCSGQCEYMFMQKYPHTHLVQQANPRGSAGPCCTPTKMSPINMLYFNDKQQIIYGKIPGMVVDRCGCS

GDF8 [6] = molecular target: T3, GDF8 (UniProt O14793); experiment: SPR (Biacore), summary of the table
T3 sequence (looked up): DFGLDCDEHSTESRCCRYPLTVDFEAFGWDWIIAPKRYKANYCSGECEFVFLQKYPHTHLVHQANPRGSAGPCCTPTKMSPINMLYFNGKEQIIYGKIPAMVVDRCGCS

GDF11 [7] = molecular target: T2, GDF11; experiment: SPR (Biacore), legend of FIG. 4
GDF8 [8] = molecular target: T3, GDF8; experiment: SPR (Biacore), legend of FIG. 4
GDF11 [9] = molecular target: T2, GDF11; experiment: SPR (Biacore), binding data recalled in the reporter assay text
GDF8 [10] = molecular target: T3, GDF8; experiment: as above
Activin B = molecular target: T4, Activin B (UniProt P09529); experiment: as above
T4 sequence (looked up): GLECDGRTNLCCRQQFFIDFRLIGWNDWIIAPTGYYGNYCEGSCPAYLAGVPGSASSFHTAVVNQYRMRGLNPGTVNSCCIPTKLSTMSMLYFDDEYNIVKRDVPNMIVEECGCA

Measured: binding

ALK4-Fc:ActRIIB-Fc heterodimer (from UniProt P36896 24-126; Q13705 20-134) (Fc fusion)
binds: GDF3 [1] | BMP6 [2] | GDF3 [3] | BMP6 [4]

B1: ActRIIB-Fc homodimer (Fc fusion, not shown: a dimerising Fc or GST)
chain: GRGEAETRECIYYNANWELERTNQSGLERCEGEQDKRLHCYASWRNSSGTIELVKKGCWLDDFNCYDRQECVATEENPQVYFCCCEGNFCNERFTHLPEAGGPEVTYEPPPTAPT
binds: BMP6 [2] | GDF11 [5] | GDF8 [6] | BMP6 [4] | GDF11 [7] | GDF8 [8] | GDF11 [9] | GDF8 [10] | Activin B
